Values from PubChem BioAssay AID1259308 (NCATS, 2017).

- Purpose: 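Genes whose loss raises luciferase production in HEK293 cells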 (primary screen)
- Cell system: human HEK293 embryonic kidney cells stably expressing firefly luciferase (HEK-CMV-Luc2-Hygro)
- Knock-down reagent: single siRNA against human genes, 0.8 pmol siRNA per well
- Time to read-out: 72 h
- Measured: 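Reporter luminescence and viable-cell signal on separate replicate plates, given as percent of non-targeting control and median/MAD z-scores, plus per-cell luciferase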
- Scale: total luciferase, z-score and total luciferase, % of control: higher = more reporter protein produced; luciferase per cell, z-score: higher = more reporter output per viable cell
- Hit rule: 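An siRNA counts as active if its total luciferase robust z-score exceeds 3; genes with two or more such siRNAs out of three were retested with fresh siRNAs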
- Meaning of the calls: active = raised luciferase; inactive = no rise
This is an unselected part of about 59,000 reagents. About 1,510 of them (2.6%) count as active. 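Calls use total luciferase alone and ignore viability, so some active siRNAs may act by altering cell number.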 Unmarked entries are inactive. Reagents against one gene are numbered here. Not all columns of the deposit are shown.

| target | siRNA no. | total luciferase, z-score | total luciferase, % of control | luciferase per cell, z-score |
| --- | --- | --- | --- | --- |
| IMMP2L | 1 | 0.0279 | 82.4 | -0.484 |
| IMMP2L | 2 | -2.03 | 41.6 | -2.89 |
| IMMP2L | 3 | 1.89 | 119 | 0.891 |
| AK5 | 1 | -1.89 | 44.3 | -1.47 |
| AK5 | 2 | 0.312 | 88.1 | -0.538 |
| AK5 | 3 | 0.432 | 90.5 | -0.104 |
| DCUN1D1 | 1 | -0.382 | 74.3 | -0.129 |
| DCUN1D1 | 2 | 0.238 | 86.6 | 0.366 |
| DCUN1D1 | 3 | 0.687 | 95.6 | 0.284 |
| ELAVL2 | 1 | -0.468 | 72.6 | -0.286 |
| ELAVL2 | 2 | -0.623 | 69.5 | -0.447 |
| ELAVL2 | 3 | -0.603 | 69.9 | -0.56 |
| SYNGR3 | 1 | -0.212 | 77.7 | 0.637 |
| SYNGR3 | 2 | 0.209 | 86 | 0.568 |
| SYNGR3 | 3 | 0.588 | 93.6 | 0.406 |
| GALNT3 | 1 | -0.539 | 71.2 | 0.108 |
| GALNT3 | 2 | -1.97 | 42.8 | -2.3 |
| GALNT3 | 3 | -0.489 | 72.2 | -0.48 |
| CDK5RAP3 | 1 | 2.21 | 126 | 0.788 |
| CDK5RAP3 | 2 | -0.38 | 74.3 | -0.223 |
| CDK5RAP3 | 3 | -0.128 | 79.3 | -0.0516 |
| PYGL | 1 | 0.0369 | 82.6 | 0.52 |
| PYGL | 2 | 2.45 | 131 | 1.65 |
| PYGL | 3 | 0.509 | 92 | 0.371 |

Limited to “total luciferase, % of control” (4 entries from above):
SYNGR3 #3: 93.6
GALNT3 #1: 71.2
GALNT3 #2: 42.8
GALNT3 #3: 72.2
